Data published in US10869863B2 (priority 2016, dated 2020).
Plain letter strings leave the end groups untold.

Test: general procedure: Fmoc solid-phase peptide synthesis; 2C1-Trt Resin; HOBT/DIC
Conditions: whole synthesis, scale 10.0 g resin, hydrochloride (conjugates)

## CRPARPAR
  isolated mass: 6.1 g
